These are yes or no findings as the source states them, for the method shown. Binding seen in cells or lysates may run through a third protein. Some entries that bind do so weakly or less than the wild type.
How the values were obtained:
[1] = target: Apolipoprotein E3 (APOE3), overexpressed in transfected Huh7 cells (human) (UniProt P02649); assay: co-IP; APOE precipitated with anti-APOE antibody (sc-13521) and Protein G Sepharose, overnight at 4 °C, from lysates of APOE3- and APOE4-transfected Huh7 cells; Western blot, target bands normalised to the APOE signal
[2] = target: Apolipoprotein E (APOE), endogenous in unmodified Huh7 cells (human (endogenous in Huh7)) (UniProt P02649); assay: co-IP; APOE precipitated with anti-APOE antibody (sc-13521) and Protein G Sepharose, overnight at 4 °C, from lysates of unmodified Huh7 cells; untreated or thapsigargin (50 µM, 24 h); low glucose (1 g/L) or glucose challenge (5 g/L, 6 h); Western blot, target bands normalised to the APOE band
[3] = target: inositol 1,4,5-trisphosphate receptor type 1 (IP3R1) (human (endogenous in Huh7)) (UniProt Q14643); assay: proximity ligation; in situ Duolink PLA in fixed, permeabilised Huh7 cells (mock-, APOE3- or APOE4-transfected) with mouse anti-IP3R1 and rabbit anti-VDAC1 antibodies; 1 or 5 g/L glucose for six hours

Sequences of proteins named here, by UniProt entry; tags and fusion partners are left off. Residues count along the entry.
UniProt P02649, residues 19-317: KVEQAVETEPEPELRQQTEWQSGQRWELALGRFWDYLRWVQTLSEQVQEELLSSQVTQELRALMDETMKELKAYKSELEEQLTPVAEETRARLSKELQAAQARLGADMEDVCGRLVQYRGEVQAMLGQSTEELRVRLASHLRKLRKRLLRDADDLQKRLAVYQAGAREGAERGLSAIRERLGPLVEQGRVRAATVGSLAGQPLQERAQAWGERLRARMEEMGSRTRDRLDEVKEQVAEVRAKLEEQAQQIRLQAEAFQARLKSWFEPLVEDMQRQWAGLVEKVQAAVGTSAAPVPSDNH
UniProt Q14643: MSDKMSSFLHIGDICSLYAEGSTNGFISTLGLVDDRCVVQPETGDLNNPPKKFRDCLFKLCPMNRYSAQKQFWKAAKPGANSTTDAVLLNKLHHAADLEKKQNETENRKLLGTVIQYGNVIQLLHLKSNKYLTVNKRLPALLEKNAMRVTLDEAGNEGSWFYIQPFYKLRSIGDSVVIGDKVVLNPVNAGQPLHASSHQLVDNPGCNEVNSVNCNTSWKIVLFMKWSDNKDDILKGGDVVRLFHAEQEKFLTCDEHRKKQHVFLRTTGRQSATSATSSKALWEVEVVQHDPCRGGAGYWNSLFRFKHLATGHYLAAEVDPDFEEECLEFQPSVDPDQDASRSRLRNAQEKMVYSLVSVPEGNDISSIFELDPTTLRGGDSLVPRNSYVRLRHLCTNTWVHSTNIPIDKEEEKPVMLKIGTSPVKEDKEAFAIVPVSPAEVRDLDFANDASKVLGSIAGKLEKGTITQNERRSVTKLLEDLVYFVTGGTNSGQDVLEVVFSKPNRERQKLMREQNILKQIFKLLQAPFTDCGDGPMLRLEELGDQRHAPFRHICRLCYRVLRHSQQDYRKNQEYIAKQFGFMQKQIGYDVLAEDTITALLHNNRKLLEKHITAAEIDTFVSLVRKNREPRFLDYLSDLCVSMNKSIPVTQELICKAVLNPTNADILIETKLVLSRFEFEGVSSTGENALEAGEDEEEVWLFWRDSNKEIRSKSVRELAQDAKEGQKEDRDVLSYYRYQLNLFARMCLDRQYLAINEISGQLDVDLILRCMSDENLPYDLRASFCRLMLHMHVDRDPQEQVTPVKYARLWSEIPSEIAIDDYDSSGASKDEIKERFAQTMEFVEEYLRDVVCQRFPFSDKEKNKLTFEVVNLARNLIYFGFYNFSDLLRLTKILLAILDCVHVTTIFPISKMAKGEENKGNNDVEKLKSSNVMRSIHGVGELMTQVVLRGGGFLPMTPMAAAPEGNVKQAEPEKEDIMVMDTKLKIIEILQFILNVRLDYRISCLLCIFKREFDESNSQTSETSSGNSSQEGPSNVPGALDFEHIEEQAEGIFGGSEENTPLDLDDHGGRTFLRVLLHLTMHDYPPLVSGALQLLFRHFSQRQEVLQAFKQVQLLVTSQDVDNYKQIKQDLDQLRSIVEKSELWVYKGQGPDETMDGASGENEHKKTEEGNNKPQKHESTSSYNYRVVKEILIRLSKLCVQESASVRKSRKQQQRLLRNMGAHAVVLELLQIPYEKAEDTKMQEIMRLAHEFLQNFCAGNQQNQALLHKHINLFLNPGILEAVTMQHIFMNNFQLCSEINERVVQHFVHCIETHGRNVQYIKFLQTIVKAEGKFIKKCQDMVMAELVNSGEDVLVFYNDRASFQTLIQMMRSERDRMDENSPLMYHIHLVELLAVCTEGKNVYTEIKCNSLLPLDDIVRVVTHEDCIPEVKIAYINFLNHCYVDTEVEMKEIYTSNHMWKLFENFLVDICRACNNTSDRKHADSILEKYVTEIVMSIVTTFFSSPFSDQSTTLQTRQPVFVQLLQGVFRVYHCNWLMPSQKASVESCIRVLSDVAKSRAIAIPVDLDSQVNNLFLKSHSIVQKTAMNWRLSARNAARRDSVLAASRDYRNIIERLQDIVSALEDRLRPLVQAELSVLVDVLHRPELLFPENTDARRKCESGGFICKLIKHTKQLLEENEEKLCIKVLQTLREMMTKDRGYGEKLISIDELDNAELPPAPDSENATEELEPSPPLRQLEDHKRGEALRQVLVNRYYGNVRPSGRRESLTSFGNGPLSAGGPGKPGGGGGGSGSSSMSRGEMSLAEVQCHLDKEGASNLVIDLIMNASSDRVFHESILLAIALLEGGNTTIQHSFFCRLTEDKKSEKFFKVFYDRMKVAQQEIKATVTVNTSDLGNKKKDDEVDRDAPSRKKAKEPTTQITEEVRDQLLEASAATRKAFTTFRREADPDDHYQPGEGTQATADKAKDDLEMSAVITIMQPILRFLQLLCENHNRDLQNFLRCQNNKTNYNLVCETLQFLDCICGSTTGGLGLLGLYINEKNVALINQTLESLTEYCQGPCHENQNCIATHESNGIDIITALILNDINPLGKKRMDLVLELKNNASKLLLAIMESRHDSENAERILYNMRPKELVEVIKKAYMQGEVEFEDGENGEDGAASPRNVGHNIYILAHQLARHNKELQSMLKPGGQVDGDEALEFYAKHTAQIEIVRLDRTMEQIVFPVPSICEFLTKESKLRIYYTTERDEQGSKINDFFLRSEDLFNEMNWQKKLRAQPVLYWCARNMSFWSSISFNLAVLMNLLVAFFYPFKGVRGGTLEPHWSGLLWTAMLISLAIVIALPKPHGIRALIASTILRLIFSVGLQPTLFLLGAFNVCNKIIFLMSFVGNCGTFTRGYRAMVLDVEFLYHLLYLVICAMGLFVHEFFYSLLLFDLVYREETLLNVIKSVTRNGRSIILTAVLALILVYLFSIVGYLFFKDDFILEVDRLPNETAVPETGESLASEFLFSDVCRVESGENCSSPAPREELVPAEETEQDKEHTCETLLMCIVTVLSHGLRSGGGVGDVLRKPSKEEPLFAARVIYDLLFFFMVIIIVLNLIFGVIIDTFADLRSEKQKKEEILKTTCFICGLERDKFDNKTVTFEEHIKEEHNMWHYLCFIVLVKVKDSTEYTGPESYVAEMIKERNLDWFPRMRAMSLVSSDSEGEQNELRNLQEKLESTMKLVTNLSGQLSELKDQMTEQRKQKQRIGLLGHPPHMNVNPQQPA
UniProt P21796: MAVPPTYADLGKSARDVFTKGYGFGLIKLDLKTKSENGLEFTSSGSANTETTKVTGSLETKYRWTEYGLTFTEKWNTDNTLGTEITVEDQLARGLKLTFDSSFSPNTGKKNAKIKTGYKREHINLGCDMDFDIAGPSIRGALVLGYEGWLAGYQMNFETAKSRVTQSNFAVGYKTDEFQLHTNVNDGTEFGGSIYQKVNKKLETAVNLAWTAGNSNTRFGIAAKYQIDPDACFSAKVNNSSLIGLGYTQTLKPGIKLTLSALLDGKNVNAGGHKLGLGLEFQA

Molecule: Voltage-dependent anion-selective channel 1 (VDAC1) (from UniProt P21796 1-283)
- binding [1]: binds
- binding [2]: binds
- binding [3]: binds

B1: Lon protease (LONP1) (enzyme, UniProt P36776 68-959)
chain: FWEASSRGGGAFSGGEDASEGGAEEGAGGAGGSAGAGEGPVITALTPMTIPDVFPHLPLIAITRNPVFPRFIKIIEVKNKKLVELLRRKVRLAQPYVGVFLKRDDSNESDVVESLDEIYHTGTFAQIHEMQDLGDKLRMIVMGHRRVHISRQLEVEPEEPEAENKHKPRRKSKRGKKEAEDELSARHPAELAMEPTPELPAEVLMVEVENVVHEDFQVTEEVKALTAEIVKTIRDIIALNPLYRESVLQMMQAGQRVVDNPIYLSDMGAALTGAESHELQDVLEETNIPKRLYKALSLLKKEFELSKLQQRLGREVEEKIKQTHRKYLLQEQLKIIKKELGLEKDDKDAIEEKFRERLKELVVPKHVMDVVDEELSKLGLLDNHSSEFNVTRNYLDWLTSIPWGKYSNENLDLARAQAVLEEDHYGMEDVKKRILEFIAVSQLRGSTQGKILCFYGPPGVGKTSIARSIARALNREYFRFSVGGMTDVAEIKGHRRTYVGAMPGKIIQCLKKTKTENPLILIDEVDKIGRGYQGDPSSALLELLDPEQNANFLDHYLDVPVDLSKVLFICTANVTDTIPEPLRDRMEMINVSGYVAQEKLAIAERYLVPQARALCGLDESKAKLSSDVLTLLIKQYCRESGVRNLQKQVEKVLRKSAYKIVSGEAESVEVTPENLQDFVGKPVFTVERMYDVTPPGVVMGLAWTAMGGSTLFVETSLRRPQDKDAKGDKDGSLEVTGQLGEVMKESARIAYTFARAFLMQHAPANDYLVTSHIHLHVPEGATPKDGPSAGCTIVTALLSLAMGRPVRQNLAMTGEVSLTGKILPVGGIKEKTIAAKRAGVTCIVLPAENKKDFYDLAAFITEGLEVHFVEHYREIFDIAFPDEQAEALAVER
- binding [1]: binds
- binding [2]: binds

B2: Mitochondrial import receptor subunit TOM40 (TOMM40) (protein, UniProt O96008 1-361)
chain: MGNVLAASSPPAGPPPPPAPALVGLPPPPPSPPGFTLPPLGGSLGAGTSTSRSSERTPGAATASASGAAEDGACGCLPNPGTFEECHRKCKELFPIQMEGVKLTVNKGLSNHFQVNHTVALSTIGESNYHFGVTYVGTKQLSPTEAFPVLVGDMDNSGSLNAQVIHQLGPGLRSKMAIQTQQSKFVNWQVDGEYRGSDFTAAVTLGNPDVLVGSGILVAHYLQSITPCLALGGELVYHRRPGEEGTVMSLAGKYTLNNWLATVTLGQAGMHATYYHKASDQLQVGVEFEASTRMQDTSVSFGYQLDLPKANLLFKGSVDSNWIVGATLEKKLPPLPLTLALGAFLNHRKNKFQCGFGLTIG
- binding [1]: binds
- binding [2]: binds
